Measurements from the supplement of paper PMC11348887.
Where a name gives a salt, the structure may show the parent alone. The list shows a part of the results. Most values lie at the level of the controls, where differences are scatter.

What follows are molecules tested on hPSC-derived cortical neurons (WA09) (assay: KCl-induced FOS+/EGR-1+ double-positive nuclei fraction z-score (KCl minus unstimulated); higher = stronger activity-induced IEG response). Conditions: 5 µM; treatment: days 7-14 after plating, readout day 21.

Structure (SMILES)	KCl-induced FOS+/EGR-1+ double-positive nuclei fraction z-score
Cc1c(F)cc(C(=O)NC2CC2)cc1-c1ccc(C(=O)NCC(C)(C)C)cn1	0.318
O=C(O)CCC(=O)Nc1ccc(S(=O)(=O)Nc2nccs2)cc1 [Succinylsulfathiazole]	1.47
Cc1c(-c2ccccc2)oc2c(C(=O)OCCN3CCCCC3)cccc2c1=O [Flavoxate HCl]	-1.23
O=c1[nH]c(=O)n([C@H]2C[C@H](O)[C@@H](CO)O2)cc1I [Idoxuridine]	1.17
CN1C(=O)C(Cc2c[nH]c3ccccc23)NC1=S (centres undefined) [Necrostatin-1]	0.244
CC(=O)OCC(=O)[C@H]1CC[C@H]2[C@@H]3CCC4=CC(=O)CC[C@]4(C)[C@H]3CC[C@]12C [Deoxycorticosterone acetate]	0.0834
CCCc1cc(C)[nH]c(=O)c1CNC(=O)c1cc(-c2ccc(N3CCN(C(C)C)CC3)nc2)cc2c1cnn2C(C)C	0.106
COC(=O)C1=CO[C@@H](O[C@@H]2O[C@H](CO)[C@@H](O)[C@H](O)[C@H]2O)[C@@H]2C(CO)=CC[C@H]12 [Geniposide]	-0.353
CC1(C)S[C@@H]2[C@H](NC(=O)[C@H](NC(=O)N3CCNC3=O)c3ccccc3)C(=O)N2[C@H]1C(=O)O [Azlocillin sodium salt]	-0.306
NC(=O)c1noc([C@H](CCCC2CCCCC2)CC(=O)NO)n1	1.24
NC(=O)C(c1ccccc1)(c1ccccc1)[C@@H]1CCN(CCc2ccc3c(c2)CCO3)C1 [Darifenacin HBr]	-0.234
CC[C@H]1OC(=O)C[C@@H](O)[C@H](C)[C@@H](O[C@@H]2O[C@H](C)[C@@H](O[C@H]3C[C@@](C)(O)[C@@H](O)[C@H](C)O3)[C@H](N(C)C)[C@H]2O)[C@@H](CC=O)C[C@@H](C)C(=O)/C=C/C(C)=C/[C@@H]1CO[C@@H]1O[C@H](C)[C@@H](O)[C@@H](OC)[C@H]1OC [Tylosin tartrate]	0.059
Cc1cc(Cl)ccc1OCCCC(=O)NO [Droxinostat]	-0.328
CCOc1cc(C(=O)N2CCC(N3CCN(C)CC3)CC2)ccc1Nc1ncc2c(n1)N(C1CCCC1)c1ccccc1C(=O)N2C	-1.12
CN(C)C/C=C/C(=O)Nc1cc2c(Nc3ccc(F)c(Cl)c3)ncnc2cc1O[C@H]1CCOC1 [Afatinib (BIBW2992)]	-0.154
CC(C)(C)c1cc(C(C)(C)C)c(NC(=O)c2c[nH]c3ccccc3c2=O)cc1O [Ivacaftor (VX-770)]	0.158
CCc1cccc(CC)c1NC(=O)N1Cc2[nH]nc(NC(=O)c3ccc(N4CCN(C)CC4)cc3)c2C1	-1.46
O=c1ncn2nc(Sc3ccc(F)cc3F)ccc2c1-c1c(Cl)cccc1Cl	1.63
CCOP(=O)(OCC)C(=Cc1cc(C(C)(C)C)c(O)c(C(C)(C)C)c1)P(=O)(OCC)OCC	-0.0197
CCN(CC)C(=O)C1(c2ccccc2)CC1CN (centres undefined) [Milnacipran HCl]	1.41

2 successive entries from above:
Structure (SMILES)	KCl-induced FOS+/EGR-1+ double-positive nuclei fraction z-score
O=c1[nH]c(=O)n([C@H]2C[C@H](O)[C@@H](CO)O2)cc1I [Idoxuridine]	1.17
CN1C(=O)C(Cc2c[nH]c3ccccc23)NC1=S (centres undefined) [Necrostatin-1]	0.244

Further records follow.

Structure (SMILES)	KCl-induced FOS+/EGR-1+ double-positive nuclei fraction z-score
CCCCCCCCc1ccc(CCC(N)(CO)CO)cc1 [Fingolimod (FTY720) HCl]	-0.236
O=C(O)[C@]1(Cc2cccc(Nc3nccs3)n2)CC[C@@H](Oc2cccc(Cl)c2F)CC1	-0.871
Cc1cc(F)c(C(=O)Nc2cccc(-c3nncn3C(C)C)n2)cc1-n1cnc(C2CC2)c1 [Selonsertib (GS-4997)]	-0.0753
N=C(N)Nc1ccc(C(=O)Oc2ccc3cc(C(=N)N)ccc3c2)cc1 [Nafamostat Mesylate]	0.0145
O=c1ccn([C@@H]2O[C@H](CO)[C@@H](O)[C@H]2O)c(=O)[nH]1 [Uridine]	1.65
O=C(Nc1cccc(C(F)(F)F)c1)Nc1cc(S(=O)(=O)NC2CC2)ccc1-c1ccsc1	-0.732
NCCc1c[nH]cn1 [Histamine 2HCl]	-1.96
COc1ccc(S(=O)(=O)N(CCO)c2ccccc2CN(C)C/C=C/c2ccc(Cl)cc2)cc1 [KN-93 Phosphate]	-0.472
Cc1ccc(Sc2cncc3sc(C(N)=O)cc23)cc1	-1.14
O=C1NCC2(CCN(CCc3ccccc3)CC2)O1 [Fenspiride HCl]	1.75
CCCCCCc1ccc(O)cc1O [Hexylresorcinol]	1.32
O=C(c1cc(Cc2n[nH]c(=O)c3ccccc23)ccc1F)N1CCN(C(=O)C2CC2)CC1	-0.233
COC(=O)C1=C(C)NC(C)=C(C(=O)OC(C)(C)CN(C)CCC(c2ccccc2)c2ccccc2)C1c1cccc([N+](=O)[O-])c1 (centres undefined) [Lercanidipine hydrochloride]	-1.4
COc1cccc(-c2cc(F)ccc2C2Cc3nc(N)nc(C)c3C(=O)N2)n1 (centres undefined)	-0.321
COc1cccc(NC(=O)/C=C/c2ccc(Cl)cc2)c1	1.88
CCC1C/C(=C\c2cccnc2)C(=O)/C(=C/c2cccnc2)C1 (centres undefined)	-0.812
CC[N+](CC)(CC)CCOc1cccc(OCC[N+](CC)(CC)CC)c1OCC[N+](CC)(CC)CC [Gallamine Triethiodide]	2.68
CC[C@@H]1C(=O)N(C)c2cnc(Nc3ccc(C(=O)NC4CCN(C)CC4)cc3OC)nc2N1C1CCCC1	-0.658
Nc1ccc(S(=O)(=O)Nc2ccccn2)cc1 [Sulfapyridine]	-0.495
